Measured values: article PMC4161973

Protein sequences, listed by entry. Tags and fused reporters are not part of them. Lines headed by an entry give the natural chain unless they say otherwise; changes in a name come on top.
UniProt P39938: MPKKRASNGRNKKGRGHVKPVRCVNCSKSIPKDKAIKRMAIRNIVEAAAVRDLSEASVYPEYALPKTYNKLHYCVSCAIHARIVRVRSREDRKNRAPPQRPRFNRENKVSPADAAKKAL

How the values were obtained:
[1] = molecular target: T1, GST-Kap104 (S. cerevisiae) (UniProt P38217); assay: pull-down; dissociation assay, 1 hr: GST-importin:r-protein^FLAG complexes pre-formed on Glutathione Sepharose (r-protein from E. coli lysate) incubated with buffer alone, 1.5 µM RanGTP, 1.5 µM Tsr2 or His6-Tsr2, or 3 nM 3'-end of 18S rRNA for 1 hr at 4°C; only the target purified
T1 sequence: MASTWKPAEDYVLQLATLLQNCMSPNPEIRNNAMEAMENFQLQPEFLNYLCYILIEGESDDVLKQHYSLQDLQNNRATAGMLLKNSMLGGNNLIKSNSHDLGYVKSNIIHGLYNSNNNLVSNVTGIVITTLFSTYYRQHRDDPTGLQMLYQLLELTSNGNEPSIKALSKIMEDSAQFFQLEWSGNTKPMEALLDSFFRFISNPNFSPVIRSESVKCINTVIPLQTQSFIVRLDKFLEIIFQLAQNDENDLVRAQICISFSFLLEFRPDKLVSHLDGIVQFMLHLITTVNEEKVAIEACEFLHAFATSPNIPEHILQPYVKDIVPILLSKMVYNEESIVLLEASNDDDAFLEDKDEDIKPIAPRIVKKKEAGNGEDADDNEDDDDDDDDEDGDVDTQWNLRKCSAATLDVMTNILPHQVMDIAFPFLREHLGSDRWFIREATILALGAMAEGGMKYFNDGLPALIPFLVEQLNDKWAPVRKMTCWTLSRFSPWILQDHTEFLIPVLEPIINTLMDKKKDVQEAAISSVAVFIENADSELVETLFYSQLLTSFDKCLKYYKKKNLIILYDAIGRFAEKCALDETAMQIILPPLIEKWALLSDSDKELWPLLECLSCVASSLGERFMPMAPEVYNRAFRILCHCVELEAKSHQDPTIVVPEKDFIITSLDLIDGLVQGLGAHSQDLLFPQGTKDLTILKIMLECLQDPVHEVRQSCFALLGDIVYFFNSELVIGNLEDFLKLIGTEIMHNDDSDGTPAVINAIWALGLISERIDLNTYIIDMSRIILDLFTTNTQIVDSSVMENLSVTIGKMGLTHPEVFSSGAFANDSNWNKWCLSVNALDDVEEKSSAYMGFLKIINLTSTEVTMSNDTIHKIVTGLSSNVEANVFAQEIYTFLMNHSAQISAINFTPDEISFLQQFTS

GST-Pse1 (S. cerevisiae) = molecular target: T2, GST-Pse1 (S. cerevisiae) (UniProt P32337); assay: as above
T2 sequence: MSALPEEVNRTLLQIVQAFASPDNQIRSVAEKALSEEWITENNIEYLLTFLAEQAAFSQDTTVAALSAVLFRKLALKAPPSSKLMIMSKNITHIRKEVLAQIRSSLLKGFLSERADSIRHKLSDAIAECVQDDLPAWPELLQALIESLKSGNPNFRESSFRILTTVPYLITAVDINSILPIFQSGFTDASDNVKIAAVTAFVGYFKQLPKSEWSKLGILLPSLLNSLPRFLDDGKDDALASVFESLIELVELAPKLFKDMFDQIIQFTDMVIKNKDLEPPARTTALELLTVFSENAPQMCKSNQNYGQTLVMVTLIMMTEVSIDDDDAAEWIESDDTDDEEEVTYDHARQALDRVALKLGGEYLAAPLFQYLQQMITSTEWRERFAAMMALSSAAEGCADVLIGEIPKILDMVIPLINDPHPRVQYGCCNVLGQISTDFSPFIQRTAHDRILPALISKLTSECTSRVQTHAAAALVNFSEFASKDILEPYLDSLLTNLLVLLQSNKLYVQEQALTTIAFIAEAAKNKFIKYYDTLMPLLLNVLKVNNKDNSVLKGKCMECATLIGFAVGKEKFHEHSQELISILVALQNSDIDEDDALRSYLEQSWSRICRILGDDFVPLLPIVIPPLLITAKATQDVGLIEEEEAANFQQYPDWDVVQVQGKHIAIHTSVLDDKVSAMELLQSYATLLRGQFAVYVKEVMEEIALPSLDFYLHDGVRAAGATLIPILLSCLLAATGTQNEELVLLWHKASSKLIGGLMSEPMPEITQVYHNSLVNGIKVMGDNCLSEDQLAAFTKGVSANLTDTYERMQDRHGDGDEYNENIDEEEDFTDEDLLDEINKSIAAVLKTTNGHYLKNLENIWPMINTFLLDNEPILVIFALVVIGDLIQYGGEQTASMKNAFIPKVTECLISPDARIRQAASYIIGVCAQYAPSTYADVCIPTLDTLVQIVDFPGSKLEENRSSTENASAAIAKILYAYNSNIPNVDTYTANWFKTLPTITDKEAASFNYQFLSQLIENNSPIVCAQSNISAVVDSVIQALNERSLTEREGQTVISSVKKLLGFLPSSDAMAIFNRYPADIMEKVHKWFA

binding [1]: binds
binding (GST-Pse1 (S. cerevisiae)): binds
Substance: eS26^FLAG (from UniProt P39938)

Results are given in words; binding and its absence hold for the method and conditions named. Binding seen in cells or lysates may run through a third protein. A result given as binding can be weak or reduced; the word gives no strength. Tags and fused reporters may be left off the sequences shown.
